From paper PMC3521718, “Histone Deacetylase HDA6 Is Functionally Associated with AS1 in Repression of KNOX Genes in Arabidopsis” (PLoS Genetics, 2012)
Results are given in words; binding and its absence hold for the method and conditions named. Binding seen in cells or lysates may run through a third protein. Some binding calls cover weakened binding; strength is not graded here. Where a sequence is shown, tags or fusion partners need not be part of it.

Target: T1, … LEAVES 2 (AS2) fused to a YFP fragment for BiFC (AS2-YN, AS2-YC) (Arabidopsis thaliana) (UniProt O04479)
T1 sequence: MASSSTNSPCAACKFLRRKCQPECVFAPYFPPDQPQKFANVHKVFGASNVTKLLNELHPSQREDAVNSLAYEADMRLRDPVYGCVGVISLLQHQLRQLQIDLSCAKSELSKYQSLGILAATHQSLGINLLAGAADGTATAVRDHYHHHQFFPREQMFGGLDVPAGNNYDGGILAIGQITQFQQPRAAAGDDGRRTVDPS
Experiment: split reporter; BiFC with YN and YC fusions co-delivered by Agrobacterium GV3101 into N. benthamiana leaves; confocal microscopy

B1: … LEAVES 2 (AS2) fused to a YFP fragment for BiFC (AS2-YN, AS2-YC) (protein, UniProt O04479 1-199)
chain: T1 sequence
For B1, the binding was “binds”.
